In the supplement of paper PMC10849652:
The other results are listed elsewhere or left out.

Chains of the proteins cited; added tags and fusions are not shown. Lines headed by an entry give the natural chain unless they say otherwise; changes in a name come on top.
UniProt Q9NVW2: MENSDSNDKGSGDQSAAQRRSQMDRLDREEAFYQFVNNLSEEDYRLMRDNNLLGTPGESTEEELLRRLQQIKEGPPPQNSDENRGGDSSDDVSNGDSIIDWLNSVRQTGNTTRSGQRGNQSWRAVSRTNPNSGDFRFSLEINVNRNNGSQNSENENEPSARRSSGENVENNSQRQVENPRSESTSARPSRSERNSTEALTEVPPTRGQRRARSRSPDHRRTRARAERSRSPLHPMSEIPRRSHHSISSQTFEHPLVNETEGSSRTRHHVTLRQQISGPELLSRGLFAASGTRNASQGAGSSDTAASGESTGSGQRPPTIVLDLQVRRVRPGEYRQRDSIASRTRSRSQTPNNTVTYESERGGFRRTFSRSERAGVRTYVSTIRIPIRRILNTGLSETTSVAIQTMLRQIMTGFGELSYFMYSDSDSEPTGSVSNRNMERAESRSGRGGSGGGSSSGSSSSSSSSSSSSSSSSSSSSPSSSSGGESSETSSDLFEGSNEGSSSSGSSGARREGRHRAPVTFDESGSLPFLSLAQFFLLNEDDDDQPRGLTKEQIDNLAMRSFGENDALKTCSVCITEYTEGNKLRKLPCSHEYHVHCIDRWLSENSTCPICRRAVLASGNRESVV
UniProt P0C7M4: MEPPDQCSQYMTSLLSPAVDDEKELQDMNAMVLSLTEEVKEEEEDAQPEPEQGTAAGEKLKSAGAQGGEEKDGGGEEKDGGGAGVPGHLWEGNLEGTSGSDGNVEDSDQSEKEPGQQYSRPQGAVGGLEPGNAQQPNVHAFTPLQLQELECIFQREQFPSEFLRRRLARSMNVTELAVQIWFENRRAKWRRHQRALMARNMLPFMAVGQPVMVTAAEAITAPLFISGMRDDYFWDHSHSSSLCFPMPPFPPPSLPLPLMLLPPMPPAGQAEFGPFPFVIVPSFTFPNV
UniProt Q8NCN4: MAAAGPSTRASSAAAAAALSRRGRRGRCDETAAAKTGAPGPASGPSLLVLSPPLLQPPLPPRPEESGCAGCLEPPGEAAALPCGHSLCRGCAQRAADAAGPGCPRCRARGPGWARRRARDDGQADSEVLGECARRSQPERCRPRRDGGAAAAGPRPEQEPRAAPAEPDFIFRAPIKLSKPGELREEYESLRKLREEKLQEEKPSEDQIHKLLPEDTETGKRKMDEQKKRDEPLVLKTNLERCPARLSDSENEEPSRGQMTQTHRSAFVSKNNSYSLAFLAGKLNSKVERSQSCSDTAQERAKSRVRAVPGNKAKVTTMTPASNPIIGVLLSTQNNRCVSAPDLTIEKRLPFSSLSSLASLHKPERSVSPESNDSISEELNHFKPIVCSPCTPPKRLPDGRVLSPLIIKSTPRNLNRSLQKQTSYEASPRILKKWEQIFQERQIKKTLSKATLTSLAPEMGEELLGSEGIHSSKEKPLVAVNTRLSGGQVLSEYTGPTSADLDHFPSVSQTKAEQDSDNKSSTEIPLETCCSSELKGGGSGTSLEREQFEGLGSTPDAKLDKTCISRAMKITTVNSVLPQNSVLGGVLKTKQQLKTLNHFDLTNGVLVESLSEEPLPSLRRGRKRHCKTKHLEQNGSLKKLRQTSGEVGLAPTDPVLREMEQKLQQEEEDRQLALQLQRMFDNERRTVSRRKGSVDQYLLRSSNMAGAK
UniProt Q96G75, whole entry, looked up: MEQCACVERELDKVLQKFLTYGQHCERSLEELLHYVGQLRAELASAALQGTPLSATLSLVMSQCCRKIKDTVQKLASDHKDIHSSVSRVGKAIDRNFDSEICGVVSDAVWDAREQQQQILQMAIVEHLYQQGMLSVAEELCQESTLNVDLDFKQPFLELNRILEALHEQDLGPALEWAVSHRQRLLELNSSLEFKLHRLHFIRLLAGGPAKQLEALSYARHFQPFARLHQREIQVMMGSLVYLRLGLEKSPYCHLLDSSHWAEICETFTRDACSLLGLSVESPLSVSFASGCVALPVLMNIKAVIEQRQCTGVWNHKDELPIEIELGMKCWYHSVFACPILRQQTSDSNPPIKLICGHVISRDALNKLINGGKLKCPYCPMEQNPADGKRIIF
UniProt Q86XS8: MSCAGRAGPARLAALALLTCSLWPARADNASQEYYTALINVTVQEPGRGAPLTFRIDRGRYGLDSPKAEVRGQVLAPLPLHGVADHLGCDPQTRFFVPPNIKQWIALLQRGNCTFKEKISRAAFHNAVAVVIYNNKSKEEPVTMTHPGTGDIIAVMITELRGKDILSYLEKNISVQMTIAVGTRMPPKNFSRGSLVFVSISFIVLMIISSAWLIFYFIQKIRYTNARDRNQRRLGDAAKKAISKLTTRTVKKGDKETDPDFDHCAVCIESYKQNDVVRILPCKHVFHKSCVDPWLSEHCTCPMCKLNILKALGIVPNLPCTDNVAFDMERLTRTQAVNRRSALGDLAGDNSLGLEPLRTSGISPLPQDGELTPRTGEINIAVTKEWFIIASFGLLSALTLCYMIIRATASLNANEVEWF
UniProt Q8TA86: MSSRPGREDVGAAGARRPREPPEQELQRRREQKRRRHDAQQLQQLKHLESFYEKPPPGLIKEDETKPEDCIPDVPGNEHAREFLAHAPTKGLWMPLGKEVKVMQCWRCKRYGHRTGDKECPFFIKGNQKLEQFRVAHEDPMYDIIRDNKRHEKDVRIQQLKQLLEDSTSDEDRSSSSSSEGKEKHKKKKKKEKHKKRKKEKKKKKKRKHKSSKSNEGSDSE
UniProt O76064: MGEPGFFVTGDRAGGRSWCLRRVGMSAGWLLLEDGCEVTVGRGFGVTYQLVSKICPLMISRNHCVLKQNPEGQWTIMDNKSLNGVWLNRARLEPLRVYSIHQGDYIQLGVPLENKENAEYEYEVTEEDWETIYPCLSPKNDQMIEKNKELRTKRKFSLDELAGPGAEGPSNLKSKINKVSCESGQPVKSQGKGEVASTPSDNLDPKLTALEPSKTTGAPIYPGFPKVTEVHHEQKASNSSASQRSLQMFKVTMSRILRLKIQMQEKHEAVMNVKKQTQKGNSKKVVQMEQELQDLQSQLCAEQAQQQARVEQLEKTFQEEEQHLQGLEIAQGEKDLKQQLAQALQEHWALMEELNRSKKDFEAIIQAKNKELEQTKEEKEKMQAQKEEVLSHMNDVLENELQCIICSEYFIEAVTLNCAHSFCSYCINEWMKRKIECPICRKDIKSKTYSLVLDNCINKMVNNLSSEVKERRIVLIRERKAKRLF
UniProt O43567: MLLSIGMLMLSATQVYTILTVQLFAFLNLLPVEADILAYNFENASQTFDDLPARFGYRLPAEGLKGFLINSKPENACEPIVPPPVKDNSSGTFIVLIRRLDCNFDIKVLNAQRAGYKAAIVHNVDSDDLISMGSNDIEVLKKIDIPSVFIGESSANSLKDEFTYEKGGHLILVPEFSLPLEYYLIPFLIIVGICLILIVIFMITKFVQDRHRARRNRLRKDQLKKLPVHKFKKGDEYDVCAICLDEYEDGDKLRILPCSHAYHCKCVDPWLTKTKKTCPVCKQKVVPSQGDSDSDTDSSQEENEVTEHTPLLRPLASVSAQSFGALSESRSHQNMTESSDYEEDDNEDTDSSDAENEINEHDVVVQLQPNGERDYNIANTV

Key:
Experiment in all cases: log2 fold change, soluble protein after heating vs DMSO (PISA); higher = thermal stabilisation; K562 lysate, 10 uM; active = over 0.2 and 3.5 SD of the protein, either way, in both replicates (recomputed)
quisinostat = compound: Cn1cc(CNCC2CCN(c3ncc(C(=O)NO)cn3)CC2)c2ccccc21 [quisinostat]
Outline: (§1)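 Pellets of K562 cells were dounce-homogenised in PBS pH 7.4 with 1 mM MgCl2, and the crude extract was held at 1 mg/mL protein for a 30 min treatment with 10 μM compound. Aliquots were heated for 3 min over 48°C-58°C and pooled before NP-40 was added to 0.5% at 4°C. The supernatant from 21,000xg for 90 min was quantified by TMTpro 16plex LC-MS/MS with channel sums equalised. Values are reported from duplicates as log-two fold change in thermal stability relative to solvent controls.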

[1] = compound: NC(=O)Nc1cc(-c2cccc(F)c2)sc1C(=O)N[C@H]1CCCNC1
Outline: as §1

[2] = compound: O=C1NC(=O)C(c2cnc3ccccn23)=C1c1cn2c3c(cc(F)cc13)CN(C(=O)N1CCCCC1)CC2
Outline: as §1

dasatinib = compound: Cc1nc(Nc2ncc(C(=O)Nc3c(C)cccc3Cl)s2)cc(N2CCN(CCO)CC2)n1 [dasatinib]
Outline: as §1

[3] = compound: Cn1cc(-c2ccc3c(c2)CCN3C(=O)Cc2cccc(C(F)(F)F)c2)c2c(N)ncnc21
Outline: as §1

[4] = compound: NC(=O)c1cnc(N[C@@H]2CCCC[C@@H]2N)nc1Nc1cccc(-n2nccn2)c1
Outline: as §1

[5] = compound: NC1(c2ccc(-c3nc4ccn5c(=O)[nH]nc5c4cc3-c3ccccc3)cc2)CCC1
Outline: as §1

[6] = compound: NCC(=O)Nc1ccc(-n2nc(C(F)(F)F)cc2-c2ccc3c(ccc4ccccc43)c2)cc1
Outline: as §1

vorinostat = compound: O=C(CCCCCCC(=O)Nc1ccccc1)NO [vorinostat]
Outline: as §1

silmitasertib = compound: O=C(O)c1ccc2c(c1)nc(Nc1cccc(Cl)c1)c1ccncc12 [silmitasertib]
Outline: as §1

nilotinib = compound: Cc1cn(-c2cc(NC(=O)c3ccc(C)c(Nc4nccc(-c5cccnc5)n4)c3)cc(C(F)(F)F)c2)cn1 [nilotinib]
Outline: as §1

[7] = compound: Cc1nc(Nc2n[nH]c3c2CN(C(=O)N[C@H](CN(C)C)c2ccccc2)C3(C)C)c2sccc2n1
Outline: as §1

[8] = compound: Cc1ncc(-c2ccnc(Nc3ccc(S(C)(=O)=O)cc3)n2)n1C(C)C
Outline: as §1

tipifarnib = compound: Cn1cncc1[C@@](N)(c1ccc(Cl)cc1)c1ccc2c(c1)c(-c1cccc(Cl)c1)cc(=O)n2C [tipifarnib]
Outline: as §1

entospletinib = compound: c1cn2cc(-c3ccc4cn[nH]c4c3)nc(Nc3ccc(N4CCOCC4)cc3)c2n1 [entospletinib]
Outline: as §1

Measured: log2 fold change

RLIM (UniProt Q9NVW2)
active: quisinostat -0.748
inactive: [1] 0.233 | [2] 0.289

RHOXF2B (UniProt P0C7M4)
inactive: dasatinib 0.074 | [3] -0.198 | [4] -0.227 | [5] -0.227 | [6] -0.031 | vorinostat -0.38 | silmitasertib 0.001

RNF169 (UniProt Q8NCN4)
inactive: dasatinib 0.079 | [3] -0.158 | quisinostat 0.068 | [1] 0.091 | [5] -0.36 | vorinostat -0.227 | silmitasertib 0.108 | [2] 0.015

RMND5B (UniProt Q96G75)
inactive: [6] 0.036

RNF130 (UniProt Q86XS8)
inactive: dasatinib -0.05 | [3] 0.044 | quisinostat -0.17 | [1] 0.09 | [6] 0.084 | [2] -0.174

Looked up one by one from the entries so far, 2 records:
RMND5B (UniProt Q96G75)
inactive: [6] 0.036

RNF130 (UniProt Q86XS8)
inactive: dasatinib -0.05 | [3] 0.044 | quisinostat -0.17 | [1] 0.09 | [6] 0.084 | [2] -0.174

Continued.

RP9 (UniProt Q8TA86)
inactive: dasatinib -0.002 | [3] 0.036 | quisinostat 0.015 | [1] -0.083 | [4] -0.04 | [5] -0.117 | [6] -0.098 | vorinostat 0.242 | silmitasertib -0.003 | [2] -0.072

RNF8 (UniProt O76064)
inactive: nilotinib -0.016 | [7] -0.069 | dasatinib -0.03 | [8] -0.007 | [3] -0.106 | quisinostat 0.012 | tipifarnib 0.067 | [1] 0.106 | [5] -0.04 | vorinostat -0.164 | silmitasertib -0.016 | [2] 0.069 | entospletinib 0.143

RNF13 (UniProt O43567)
inactive: [5] -0.067 | vorinostat 0.036 | silmitasertib -0.029

RPL32 (UniProt D3YTI8)
inactive: dasatinib 0.039 | [3] -0.054 | [4] 0.171 | [5] 0.039 | vorinostat 0.187 | silmitasertib -0.06

RPL15, A0A2R8Y738
inactive: nilotinib -0.163 | [7] 0.042 | [8] -0.182 | tipifarnib -0.125 | [4] 0.037 | [5] 0.16 | vorinostat 0.096 | silmitasertib 0.379
